Measured data: PubChem BioAssay AID686943 (Drosophila RNAi Screening Center, 2013)
The screen tested about 23,000 reagents; this is a random part of those with a known target gene and a result. 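Extra replicates exist only for a retested subset of genes; insulin dose and duration not given; both raised and lowered dpERK matter.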 A plus sign joins genes that one reagent is predicted to hit. Further read-outs or replicates are left out here. The record does not give: the amount of reagent, the time to read-out.

- Screen: 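Fly genes whose loss alters ERK activation after insulin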 (primary screen)
- Cells: Drosophila S2R+ haemocyte-like cells expressing YFP-tagged ERK (Rolled)
- Knock-down reagent: long dsRNA against Drosophila genes
- Conditions: insulin stimulation versus unstimulated cells; dose and duration not given
- Measurement: 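Antibody staining for doubly phosphorylated ERK divided by ERK-YFP signal, as plate z-scores, in insulin-treated and untreated cells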
- Scale: replicate 1, z-score of dpERK with insulin and replicate 2, z-score of dpERK with insulin: higher = more active ERK per ERK-YFP after insulin; replicate 1, z-score of dpERK under basal conditions: higher = more basal active ERK per ERK-YFP

| gene | DRSC id | replicate 1, z-score of dpERK with insulin | replicate 2, z-score of dpERK with insulin | replicate 1, z-score of dpERK under basal conditions |
| --- | --- | --- | --- | --- |
| Gr59e | DRSC04276 | 0.69 | 0.7 | 0.16 |
| CG32085 | DRSC10138 | 0.22 | 1.24 | -0.17 |
| CG32085 | DRSC10139 | -0.13 | -0.03 | 0.65 |
| CG32085 | DRSC10576 | 0.14 | -0.4 | 1.33 |
| mrva | DRSC11009 | 0.13 | 2.15 | -1.55 |
| mrva | DRSC21842 | -0.25 | 0.42 | -1.16 |
| Wsck | DRSC13682 | -0.79 | 0.02 | 1.61 |
| Tps1 | DRSC00269 | 0.21 | 0.43 | 0.19 |
| Cul1 | DRSC07645 | 1.26 | 1.79 | -0.36 |
| CG15649 | DRSC04240 | 0.35 | 0.03 | 0.97 |
| grn | DRSC12666 | -4.35 | -2.63 | -3.41 |
| grn | DRSC16961 | 1.69 | 0.1 | 0.26 |
| Svip | DRSC08982 | 0 | 0 | -0.03 |
| Ttc1 | DRSC15016 | 0.88 | -1.56 | -0.49 |
| Ttc1 | DRSC22469 | 0.1 | -0.68 | -0.83 |
| Ets97D | DRSC16665 | 0.78 | -0.55 | -0.43 |
| Ir54a + sub | DRSC06459 | -0.36 | 0.04 | 0.23 |
| dgrn | DRSC12154 | 0.28 | 0.51 | -0.49 |
| CG10265 | DRSC05986 | -0.46 | 0.36 | -0.42 |
| CG10265 | DRSC21680 | -0.02 | 0.32 | 0.83 |
| Gpdh3 | DRSC15325 | 0.12 | 0.25 | -0.99 |
| Mbs | DRSC09414 | -0.05 | 1.15 | -0.64 |
| Mbs | DRSC10525 | 0.31 | 0.45 | 0.2 |
| Mbs | DRSC10553 | 0.01 | 0.43 | -0.75 |

Entries above whose target name begins with M or m (5):
| gene | DRSC id | replicate 1, z-score of dpERK with insulin | replicate 2, z-score of dpERK with insulin | replicate 1, z-score of dpERK under basal conditions |
| --- | --- | --- | --- | --- |
| mrva | DRSC11009 | 0.13 | 2.15 | -1.55 |
| mrva | DRSC21842 | -0.25 | 0.42 | -1.16 |
| Mbs | DRSC09414 | -0.05 | 1.15 | -0.64 |
| Mbs | DRSC10525 | 0.31 | 0.45 | 0.2 |
| Mbs | DRSC10553 | 0.01 | 0.43 | -0.75 |
